Data as given in paper doi:10.1101/773804.
No constants are given. Whether binding was seen depends on the method and setting. In cells and extracts the contact can be indirect. Tags and fused reporters may be left off the sequences shown.

Chains of the proteins cited; added tags and fusions are not shown. Lines headed by an entry give the natural chain unless they say otherwise; changes in a name come on top.
UniProt P07686: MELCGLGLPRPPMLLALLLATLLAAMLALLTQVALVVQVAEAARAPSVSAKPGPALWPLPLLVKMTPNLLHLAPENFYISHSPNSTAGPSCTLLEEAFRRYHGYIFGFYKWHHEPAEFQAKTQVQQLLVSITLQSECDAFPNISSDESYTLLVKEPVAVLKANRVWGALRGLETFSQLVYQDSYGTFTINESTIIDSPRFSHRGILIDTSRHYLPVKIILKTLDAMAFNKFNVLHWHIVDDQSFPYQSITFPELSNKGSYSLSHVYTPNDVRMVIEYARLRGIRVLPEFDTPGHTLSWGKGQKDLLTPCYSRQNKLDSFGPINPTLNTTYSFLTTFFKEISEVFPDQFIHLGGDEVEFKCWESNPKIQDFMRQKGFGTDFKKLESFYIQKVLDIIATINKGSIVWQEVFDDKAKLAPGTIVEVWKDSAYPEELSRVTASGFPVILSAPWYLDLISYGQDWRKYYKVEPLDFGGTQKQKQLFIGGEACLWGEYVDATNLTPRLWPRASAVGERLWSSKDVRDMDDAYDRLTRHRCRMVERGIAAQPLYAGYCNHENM

Biological target: T1, myc-tagged CLN6 (human (cDNA from HeLa and HEK293-T RNA)) (UniProt Q9NWW5)
T1 sequence: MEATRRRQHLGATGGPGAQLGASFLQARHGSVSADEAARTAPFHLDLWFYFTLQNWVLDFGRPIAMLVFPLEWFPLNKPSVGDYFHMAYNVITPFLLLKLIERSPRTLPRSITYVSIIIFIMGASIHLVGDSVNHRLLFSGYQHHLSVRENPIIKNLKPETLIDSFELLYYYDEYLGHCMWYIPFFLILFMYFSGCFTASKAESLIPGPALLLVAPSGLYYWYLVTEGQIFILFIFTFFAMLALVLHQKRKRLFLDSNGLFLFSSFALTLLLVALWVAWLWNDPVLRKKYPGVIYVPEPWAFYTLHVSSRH
Assay: co-IP

Substance: HEXB, YFP-tagged (from UniProt P07686) (enzyme)
- binding: no binding
